This is one part of the list. Residues, ends and D or L forms follow the SMILES beside them. *: point of attachment. Cbz = O=C(OCc1ccccc1)*
Legend:
Experiment in all cases: log2 fold change, soluble protein after heating vs DMSO (PISA); higher = thermal stabilisation; K562 cells, 10 uM, 30 min; active = over 0.2 and 3.5 SD of the protein, either way, in both replicates (recomputed)
erlotinib = compound: C#Cc1cccc(Nc2ncnc3cc(OCCOC)c(OCCOC)cc23)c1 [erlotinib]
How it was run: (§1)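 K562 cells at 2×10^6 cells/mL were exposed to 10 μM compound for 30 min, then aliquots were heated for 3 min across 48°C-58°C, pooled, and extracted in PBS containing 0.5% NP-40 at 4°C. The supernatant after 21,000xg for 90 min was taken as soluble protein and measured by TMTpro 16plex LC-MS/MS with channel sums equalised. Thermal stability is reported relative to control samples, with values from duplicates. Fold changes are given on a log2 scale.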

Protein sequences, listed by entry. Tags and fused reporters are not part of them. Lines headed by an entry give the natural chain unless they say otherwise; changes in a name come on top.
UniProt Q9HD42: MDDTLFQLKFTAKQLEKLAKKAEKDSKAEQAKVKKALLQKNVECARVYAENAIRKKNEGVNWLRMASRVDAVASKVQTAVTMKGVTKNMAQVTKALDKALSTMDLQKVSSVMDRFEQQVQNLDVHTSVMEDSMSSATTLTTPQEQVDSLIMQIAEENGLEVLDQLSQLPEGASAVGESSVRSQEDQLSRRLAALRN
UniProt Q9C0F1: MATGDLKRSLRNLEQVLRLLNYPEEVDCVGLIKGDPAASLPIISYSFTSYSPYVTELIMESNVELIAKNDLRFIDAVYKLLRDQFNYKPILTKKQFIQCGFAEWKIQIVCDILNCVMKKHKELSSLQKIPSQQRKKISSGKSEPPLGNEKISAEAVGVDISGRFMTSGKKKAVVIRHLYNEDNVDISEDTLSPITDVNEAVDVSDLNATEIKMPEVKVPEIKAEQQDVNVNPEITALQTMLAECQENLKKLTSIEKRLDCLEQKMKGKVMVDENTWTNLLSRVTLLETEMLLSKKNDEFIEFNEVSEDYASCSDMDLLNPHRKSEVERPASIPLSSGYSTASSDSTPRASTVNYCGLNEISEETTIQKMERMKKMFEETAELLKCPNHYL
UniProt Q9BWS9: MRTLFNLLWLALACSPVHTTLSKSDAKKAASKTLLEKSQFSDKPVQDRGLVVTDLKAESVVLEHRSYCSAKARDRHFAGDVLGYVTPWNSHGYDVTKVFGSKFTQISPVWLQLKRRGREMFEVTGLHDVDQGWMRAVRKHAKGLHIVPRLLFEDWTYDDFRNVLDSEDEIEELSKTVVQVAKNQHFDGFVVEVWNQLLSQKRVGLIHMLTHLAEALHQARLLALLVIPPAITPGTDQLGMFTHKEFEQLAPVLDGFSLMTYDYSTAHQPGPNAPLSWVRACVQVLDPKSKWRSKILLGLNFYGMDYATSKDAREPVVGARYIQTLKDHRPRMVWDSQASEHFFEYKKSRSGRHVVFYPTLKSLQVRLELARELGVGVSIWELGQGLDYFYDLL
UniProt P57076: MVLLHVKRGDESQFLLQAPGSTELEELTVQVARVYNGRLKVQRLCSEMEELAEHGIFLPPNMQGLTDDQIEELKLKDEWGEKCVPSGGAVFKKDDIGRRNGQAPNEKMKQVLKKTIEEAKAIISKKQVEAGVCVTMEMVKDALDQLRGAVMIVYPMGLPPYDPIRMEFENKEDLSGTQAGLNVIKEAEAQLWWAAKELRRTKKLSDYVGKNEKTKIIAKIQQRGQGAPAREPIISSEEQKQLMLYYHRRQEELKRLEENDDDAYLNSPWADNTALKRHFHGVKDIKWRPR
UniProt Q9NZZ3: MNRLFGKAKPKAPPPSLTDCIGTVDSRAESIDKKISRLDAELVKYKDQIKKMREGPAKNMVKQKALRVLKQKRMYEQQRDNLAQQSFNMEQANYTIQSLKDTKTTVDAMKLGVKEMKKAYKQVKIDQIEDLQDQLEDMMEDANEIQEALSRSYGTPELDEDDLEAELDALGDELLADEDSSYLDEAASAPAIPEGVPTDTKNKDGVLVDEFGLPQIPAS
UniProt Q9Y281, whole entry, looked up: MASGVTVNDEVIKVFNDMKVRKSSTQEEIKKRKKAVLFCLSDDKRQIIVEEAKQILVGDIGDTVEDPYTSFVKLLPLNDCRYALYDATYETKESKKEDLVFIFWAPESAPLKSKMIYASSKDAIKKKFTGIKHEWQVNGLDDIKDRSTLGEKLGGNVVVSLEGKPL
UniProt Q99618: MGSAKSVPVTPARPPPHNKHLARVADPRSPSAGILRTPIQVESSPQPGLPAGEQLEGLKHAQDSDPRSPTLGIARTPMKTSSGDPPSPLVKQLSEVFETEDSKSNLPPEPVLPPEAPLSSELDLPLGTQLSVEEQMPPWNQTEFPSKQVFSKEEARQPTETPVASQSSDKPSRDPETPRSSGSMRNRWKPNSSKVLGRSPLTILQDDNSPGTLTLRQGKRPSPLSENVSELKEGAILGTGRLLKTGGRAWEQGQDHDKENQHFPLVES
UniProt Q13112, whole entry, looked up: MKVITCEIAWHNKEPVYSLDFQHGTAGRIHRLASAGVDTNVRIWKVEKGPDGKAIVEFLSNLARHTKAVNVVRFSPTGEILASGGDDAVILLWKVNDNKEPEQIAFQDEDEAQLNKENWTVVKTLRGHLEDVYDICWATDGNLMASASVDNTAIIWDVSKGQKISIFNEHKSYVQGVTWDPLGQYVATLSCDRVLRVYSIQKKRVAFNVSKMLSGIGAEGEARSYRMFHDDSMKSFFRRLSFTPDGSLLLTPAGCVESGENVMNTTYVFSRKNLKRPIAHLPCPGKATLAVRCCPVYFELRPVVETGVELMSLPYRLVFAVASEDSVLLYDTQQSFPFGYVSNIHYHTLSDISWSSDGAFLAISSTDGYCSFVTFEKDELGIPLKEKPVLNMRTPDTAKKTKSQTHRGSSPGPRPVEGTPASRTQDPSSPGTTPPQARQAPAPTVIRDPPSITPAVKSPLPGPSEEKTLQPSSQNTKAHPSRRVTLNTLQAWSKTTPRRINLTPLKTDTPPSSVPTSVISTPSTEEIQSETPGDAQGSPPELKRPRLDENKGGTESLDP
UniProt Q9UKY7: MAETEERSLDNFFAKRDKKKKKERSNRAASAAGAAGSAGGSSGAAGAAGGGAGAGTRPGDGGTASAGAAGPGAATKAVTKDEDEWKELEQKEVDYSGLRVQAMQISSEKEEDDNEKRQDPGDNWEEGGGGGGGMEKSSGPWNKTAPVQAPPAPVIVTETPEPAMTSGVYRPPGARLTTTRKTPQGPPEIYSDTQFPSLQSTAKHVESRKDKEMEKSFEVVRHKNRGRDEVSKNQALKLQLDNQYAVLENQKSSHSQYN
UniProt Q96FF9: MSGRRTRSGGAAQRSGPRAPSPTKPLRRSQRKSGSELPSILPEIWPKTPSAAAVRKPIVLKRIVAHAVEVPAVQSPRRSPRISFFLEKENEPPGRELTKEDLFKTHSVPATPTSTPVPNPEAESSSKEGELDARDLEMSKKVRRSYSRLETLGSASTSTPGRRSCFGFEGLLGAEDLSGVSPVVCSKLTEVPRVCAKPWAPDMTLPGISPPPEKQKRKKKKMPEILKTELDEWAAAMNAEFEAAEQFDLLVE
UniProt Q9UQN3, whole entry, looked up: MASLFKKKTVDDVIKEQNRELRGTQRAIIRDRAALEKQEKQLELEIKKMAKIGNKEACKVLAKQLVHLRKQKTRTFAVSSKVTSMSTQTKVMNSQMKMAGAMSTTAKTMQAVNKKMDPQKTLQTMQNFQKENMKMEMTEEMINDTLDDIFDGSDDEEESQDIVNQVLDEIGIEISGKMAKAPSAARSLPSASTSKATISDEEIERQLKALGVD
UniProt P23528, whole entry, looked up: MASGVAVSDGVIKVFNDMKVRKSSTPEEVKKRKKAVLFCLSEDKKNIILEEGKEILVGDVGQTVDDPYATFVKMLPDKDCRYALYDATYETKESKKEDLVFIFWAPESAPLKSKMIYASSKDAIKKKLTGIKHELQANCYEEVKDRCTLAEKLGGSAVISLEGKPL
UniProt Q9Y3E7, whole entry, looked up: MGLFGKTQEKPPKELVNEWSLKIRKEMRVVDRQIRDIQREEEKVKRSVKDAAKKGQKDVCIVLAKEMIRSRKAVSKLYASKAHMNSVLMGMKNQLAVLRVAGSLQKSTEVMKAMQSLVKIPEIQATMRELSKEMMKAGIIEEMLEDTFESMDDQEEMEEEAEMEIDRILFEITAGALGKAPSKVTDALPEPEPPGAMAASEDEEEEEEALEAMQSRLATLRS
UniProt Q9UEE9, whole entry, looked up: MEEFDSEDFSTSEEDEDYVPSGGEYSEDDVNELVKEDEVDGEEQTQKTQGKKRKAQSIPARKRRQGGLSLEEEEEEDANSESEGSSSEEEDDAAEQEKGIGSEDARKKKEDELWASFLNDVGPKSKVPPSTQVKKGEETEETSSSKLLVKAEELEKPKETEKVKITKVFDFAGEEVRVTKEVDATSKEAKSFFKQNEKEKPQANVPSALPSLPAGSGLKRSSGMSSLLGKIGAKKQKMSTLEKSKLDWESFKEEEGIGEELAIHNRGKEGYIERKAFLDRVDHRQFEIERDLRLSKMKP
UniProt P26374: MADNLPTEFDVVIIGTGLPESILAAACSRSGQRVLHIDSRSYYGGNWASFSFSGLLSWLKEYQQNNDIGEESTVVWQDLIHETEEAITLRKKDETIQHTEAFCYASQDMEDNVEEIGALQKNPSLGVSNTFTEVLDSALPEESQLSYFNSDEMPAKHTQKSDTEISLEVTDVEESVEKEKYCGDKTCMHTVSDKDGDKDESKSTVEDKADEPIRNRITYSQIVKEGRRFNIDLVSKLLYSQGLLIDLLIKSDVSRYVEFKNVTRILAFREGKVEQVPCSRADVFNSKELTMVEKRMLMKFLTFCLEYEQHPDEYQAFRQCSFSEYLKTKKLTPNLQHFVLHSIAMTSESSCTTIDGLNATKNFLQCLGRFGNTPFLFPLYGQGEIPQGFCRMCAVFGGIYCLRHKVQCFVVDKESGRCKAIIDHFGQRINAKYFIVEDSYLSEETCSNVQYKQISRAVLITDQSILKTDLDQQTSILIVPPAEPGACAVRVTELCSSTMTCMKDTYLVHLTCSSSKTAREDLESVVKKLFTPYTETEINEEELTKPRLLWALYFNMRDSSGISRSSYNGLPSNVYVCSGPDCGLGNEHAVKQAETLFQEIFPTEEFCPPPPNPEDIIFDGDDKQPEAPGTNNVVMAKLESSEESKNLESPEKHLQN
UniProt Q9UFW8: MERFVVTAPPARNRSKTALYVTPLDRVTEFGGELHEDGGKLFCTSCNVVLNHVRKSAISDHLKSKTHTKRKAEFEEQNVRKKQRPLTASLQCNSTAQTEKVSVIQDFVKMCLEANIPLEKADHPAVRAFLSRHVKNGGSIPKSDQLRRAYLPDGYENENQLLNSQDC

[1] = compound: C/C(=N\NC(=O)C1=CC(=CC=C1)S(=O)(=O)N2CCOCC2)/C3=C(C=CC(=C3)Cl)O
How it was run: as §1

[2] = compound: C1=CC(=C(C=C1Cl)C2=NC3=NC=CN=C3C(=N2)NC4=CC=NC=C4)F
How it was run: as §1

[3] = compound: C1=CC(=CC=C1C2=NC3=C(N2)C=C(C=C3)C(=O)N)OC4=CC=C(C=C4)Cl
How it was run: as §1

[4] = compound: C1=CC2=C(C=CC(=C2)/C=C\3/C(=O)NC(=NCC4=CC=CS4)S3)N=C1
How it was run: as §1

[5] = compound: C1=CC2=NC=CN=C2C=C1/C=C/3\C(=O)NC(=O)S3
How it was run: as §1

[6] = compound: C1=CC=C(C=C1)C2=NC(=C(N2)C3=CC=NC=C3)C4=CC(=C(C=C4)Cl)O
How it was run: as §1

[7] = compound: C1=CC=C2C(=C1)C3=NNC4=CC=CC(=C43)C2=O
How it was run: as §1

[8] = compound: C1CCN(C1)C(=O)NC2=CC=CC(=C2)NC3=NC=C(C(=N3)NCCC4=CN=CN4)Br
How it was run: as §1

[9] = compound: C1CN(CCC1(CC2=CC=C(C=C2)Cl)N)C3=NC=NC4=C3C=CN4
How it was run: as §1

IRAK-1-4 Inhibitor I = compound: C1COCCN1CCN2C3=CC=CC=C3N=C2NC(=O)C4=CC(=CC=C4)[N+](=O)[O-] [IRAK-1-4 Inhibitor I]
How it was run: as §1

ibrutinib = compound: C=CC(=O)N1CCC[C@@H](n2nc(-c3ccc(Oc4ccccc4)cc3)c3c(N)ncnc32)C1 [ibrutinib]
How it was run: as §1

[10] = compound: CC(=O)c1cnc2ccc(-c3cc(Cl)c(O)c(Cl)c3)nc2c1N[C@H]1CC[C@H](CN(C)C)CC1
How it was run: as §1

ralimetinib = compound: CC(C)(C)Cn1c(N)nc2ccc(-c3[nH]c(C(C)(C)C)nc3-c3ccc(F)cc3)nc21 [ralimetinib]
How it was run: as §1

[11] = compound: CC(C)(O)CC(=O)NCCn1ccc2ncnc(Nc3ccc(Oc4cccc(C(F)(F)F)c4)c(Cl)c3)c21
How it was run: as §1

[12] = compound: CC(C)C1=C2N=C(C=C(N2N=C1)NCC3=CC=CC=C3)NCCCCCCN
How it was run: as §1

[13] = compound: CC(C)C[C@@H](C=O)NC(=O)[C@H](CC(C)C)NC(=O)[C@H](CC(C)C)NC(=O)OCc1ccccc1
How it was run: as §1

pinometostat = compound: CC(C)N(C[C@H]1O[C@@H](n2cnc3c(N)ncnc32)[C@H](O)[C@@H]1O)[C@H]1C[C@@H](CCc2nc3cc(C(C)(C)C)ccc3[nH]2)C1 [pinometostat]
How it was run: as §1

[14] = compound: CC1=C(C(CC(=O)N1)C2=CC=C(C=C2)C(F)(F)F)C(=O)NC3=C(C=C4C(=C3)C=NN4)F
How it was run: as §1

[15] = compound: CC1=C(C2=C(C=C1)C(=O)C3=CC=CC=C3N2CCCN)C
How it was run: as §1

Measured: log2 fold change

CHMP1A (UniProt Q9HD42)
inactive: erlotinib 0.104 | [1] -0.004 | [2] 0.024 | [3] 0.026 | [4] -0.029 | [5] 0.038 | [6] -0.04 | [7] -0.017 | [8] 0.008 | [9] 0.018 | IRAK-1-4 Inhibitor I 0.026 | ibrutinib 0.001 | [10] 0.018 | ralimetinib -0.081 | [11] -0.006 | [12] -0.089 | [13] -0.028 | pinometostat -0.059 | [14] 0.02 | [15] 0.001

CEP44 (UniProt Q9C0F1)
inactive: erlotinib 0.038 | [1] 0.083 | [2] 0.143 | [3] 0.055 | [4] 0.15 | [5] 0.08 | [6] 0.078 | [7] -0.008 | [8] -0.024 | [9] 0.048 | IRAK-1-4 Inhibitor I -0.063 | ibrutinib -0.001 | [10] -0.097 | ralimetinib -0.013 | [11] -0.182 | [12] -0.068 | [13] 0.097 | pinometostat 0.208 | [14] -0.013 | [15] -0.007

CHID1 (UniProt Q9BWS9)
inactive: erlotinib -0.092 | [1] -0.042 | [2] -0.017 | [3] -0.014 | [4] -0.003 | [5] 0.005 | [6] 0.024 | [7] -0.003 | [8] 0.001 | [9] -0.065 | IRAK-1-4 Inhibitor I -0.078 | ibrutinib -0.044 | [10] 0.092 | ralimetinib 0.107 | [11] 0.006 | [12] -0.045 | [13] 0.011 | pinometostat 0.072 | [14] 0.055 | [15] -0.023

CFAP298 (UniProt P57076)
inactive: erlotinib 0.141 | [1] -0.041 | [2] -0.055 | [3] -0.147 | [4] 0.073 | [5] 0.011 | [6] 0.057 | [7] 0.049 | [8] 0.077 | [9] -0.303 | IRAK-1-4 Inhibitor I -0.082 | ibrutinib -0.084 | [10] -0.072 | ralimetinib 0.205 | [11] -0.098 | [12] -0.277 | [13] 0.218 | pinometostat 0.404 | [14] -0.145 | [15] -0.023

CHMP5 (UniProt Q9NZZ3)
inactive: erlotinib 0.018 | [1] -0.079 | [2] -0.011 | [3] 0 | [4] -0.008 | [5] 0.011 | [6] -0.035 | [7] -0.023 | [8] 0.023 | [9] 0.025 | IRAK-1-4 Inhibitor I 0.047 | ibrutinib -0.012 | [10] 0.048 | ralimetinib -0.103 | [11] 0.002 | [12] 0.001 | [13] -0.05 | pinometostat -0.048 | [14] 0.017 | [15] -0.031

CFL2 (UniProt Q9Y281)
inactive: erlotinib 0.072 | [1] 0.076 | [2] -0.042 | [3] -0.035 | [4] -0.069 | [5] 0.023 | [6] 0.016 | [7] 0.015 | [8] -0.108 | [9] 0.053 | IRAK-1-4 Inhibitor I 0.073 | ibrutinib -0.042 | [10] 0.048 | ralimetinib -0.06 | [11] 0.032 | [12] 0.076 | [13] -0.018 | pinometostat -0.046 | [14] -0.014 | [15] -0.042

CDCA3 (UniProt Q99618)
inactive: erlotinib -0.023 | [1] -0.016 | [2] 0.015 | [3] 0.063 | [4] -0.014 | [5] 0.038 | [6] -0.05 | [7] -0.066 | [8] -0.011 | [9] 0.078 | IRAK-1-4 Inhibitor I 0.066 | ibrutinib 0.009 | [10] 0.014 | ralimetinib -0.11 | [11] -0.042 | [12] 0.058 | [13] 0.02 | pinometostat -0.053 | [14] 0.01 | [15] 0.009

CHAF1B (UniProt Q13112)
inactive: erlotinib -0.014 | [1] -0.003 | [2] -0.009 | [3] 0.022 | [4] 0.042 | [5] 0.009 | [6] -0.032 | [7] -0.024 | [8] 0.017 | [9] 0.041 | IRAK-1-4 Inhibitor I 0.052 | ibrutinib 0.019 | [10] 0.011 | ralimetinib -0.07 | [11] 0.002 | [12] 0.089 | [13] 0.007 | pinometostat -0.017 | [14] 0.023 | [15] 0.021

CDV3 (UniProt Q9UKY7)
inactive: erlotinib -0.006 | [1] 0.01 | [2] 0.058 | [3] -0.022 | [4] -0.04 | [5] 0.029 | [6] 0.003 | [7] 0.008 | [8] 0.008 | [9] 0.063 | IRAK-1-4 Inhibitor I -0.024 | ibrutinib -0.01 | [10] 0.002 | ralimetinib -0.021 | [11] -0.02 | [12] 0.063 | [13] -0.03 | pinometostat -0.126 | [14] 0.003 | [15] 0.003

CDCA5 (UniProt Q96FF9)
inactive: erlotinib -0.058 | [1] 0.03 | [2] -0.045 | [3] 0.047 | [4] -0.072 | [5] 0.073 | [6] 0.044 | [7] -0.068 | [8] -0.071 | [9] -0.054 | IRAK-1-4 Inhibitor I 0.256 | ibrutinib 0.01 | [10] -0.141 | ralimetinib 0.016 | [11] 0.089 | [12] -0.092 | [13] 0.079 | pinometostat -0.147 | [14] 0.045 | [15] 0.05

CHMP2B (UniProt Q9UQN3)
inactive: erlotinib -0.004 | [1] 0.007 | [2] 0.078 | [3] 0.024 | [4] -0.014 | [5] 0.028 | [6] 0.026 | [7] -0.018 | [8] -0.026 | [9] -0.001 | IRAK-1-4 Inhibitor I 0.052 | ibrutinib 0.004 | [10] 0.013 | ralimetinib -0.019 | [11] 0.036 | [12] -0.058 | [13] -0.032 | pinometostat -0.005 | [14] 0.033 | [15] 0.04

CFL1 (UniProt P23528)
inactive: erlotinib -0.033 | [1] 0.047 | [2] 0.128 | [3] -0.004 | [4] -0.07 | [5] 0.018 | [6] 0.033 | [7] 0.032 | [8] -0.048 | [9] -0.015 | IRAK-1-4 Inhibitor I 0.111 | ibrutinib -0.009 | [10] 0.065 | ralimetinib 0.098 | [11] 0.052 | [12] 0.003 | [13] -0.076 | pinometostat -0.05 | [14] -0.01 | [15] -0.012

3 successive records from above:
CHAF1B (UniProt Q13112)
inactive: erlotinib -0.014 | [1] -0.003 | [2] -0.009 | [3] 0.022 | [4] 0.042 | [5] 0.009 | [6] -0.032 | [7] -0.024 | [8] 0.017 | [9] 0.041 | IRAK-1-4 Inhibitor I 0.052 | ibrutinib 0.019 | [10] 0.011 | ralimetinib -0.07 | [11] 0.002 | [12] 0.089 | [13] 0.007 | pinometostat -0.017 | [14] 0.023 | [15] 0.021

CDV3 (UniProt Q9UKY7)
inactive: erlotinib -0.006 | [1] 0.01 | [2] 0.058 | [3] -0.022 | [4] -0.04 | [5] 0.029 | [6] 0.003 | [7] 0.008 | [8] 0.008 | [9] 0.063 | IRAK-1-4 Inhibitor I -0.024 | ibrutinib -0.01 | [10] 0.002 | ralimetinib -0.021 | [11] -0.02 | [12] 0.063 | [13] -0.03 | pinometostat -0.126 | [14] 0.003 | [15] 0.003

CDCA5 (UniProt Q96FF9)
inactive: erlotinib -0.058 | [1] 0.03 | [2] -0.045 | [3] 0.047 | [4] -0.072 | [5] 0.073 | [6] 0.044 | [7] -0.068 | [8] -0.071 | [9] -0.054 | IRAK-1-4 Inhibitor I 0.256 | ibrutinib 0.01 | [10] -0.141 | ralimetinib 0.016 | [11] 0.089 | [12] -0.092 | [13] 0.079 | pinometostat -0.147 | [14] 0.045 | [15] 0.05

(listing goes on)

CHMP3 (UniProt Q9Y3E7)
inactive: erlotinib -0.001 | [1] 0.056 | [2] 0.055 | [3] -0.085 | [4] 0.046 | [5] -0.053 | [6] -0.057 | [7] 0 | [8] -0.029 | [9] 0.036 | IRAK-1-4 Inhibitor I 0.043 | ibrutinib 0.006 | [10] -0.025 | ralimetinib -0.034 | [11] -0.098 | [12] -0.167 | [13] 0.01 | pinometostat 0.015 | [14] -0.005 | [15] -0.004

CFDP1 (UniProt Q9UEE9)
inactive: erlotinib 0.011 | [1] 0.012 | [2] 0.044 | [3] -0.017 | [4] 0.018 | [5] 0.019 | [6] -0.061 | [7] -0.005 | [8] 0.016 | [9] 0.047 | IRAK-1-4 Inhibitor I 0.002 | ibrutinib 0.022 | [10] 0.03 | ralimetinib -0.134 | [11] 0.014 | [12] 0.082 | [13] -0.001 | pinometostat -0.001 | [14] 0.025 | [15] 0.003

CHML (UniProt P26374)
inactive: erlotinib -0.046 | [1] 0.029 | [2] 0.064 | [3] 0.023 | [4] -0.002 | [5] 0.025 | [6] 0.021 | [7] 0.021 | [8] -0.033 | [9] 0.042 | IRAK-1-4 Inhibitor I 0.011 | ibrutinib -0.065 | [10] -0.018 | ralimetinib -0.033 | [11] -0.001 | [12] 0.052 | [13] -0.031 | pinometostat -0.021 | [14] 0.007 | [15] 0.031

CGGBP1 (UniProt Q9UFW8)
inactive: erlotinib 0.018 | [1] -0.013 | [2] -0.031 | [3] -0.032 | [4] -0.024 | [5] 0.016 | [6] 0.014 | [7] 0 | [8] -0.043 | [9] 0.005 | IRAK-1-4 Inhibitor I 0.03 | ibrutinib -0.012 | [10] 0.003 | ralimetinib 0.063 | [11] -0.007 | [12] 0.052 | [13] 0.014 | pinometostat 0.006 | [14] 0.044 | [15] 0.082

— the supplement of paper PMC10849652
